This passage reports binding results from PMC5399782.

The chains behind the UniProt entries cited, without tags or fusion partners. Where a name states a change or a piece, a line headed by the entry shows the natural chain unless it says otherwise.
UniProt Q387I4: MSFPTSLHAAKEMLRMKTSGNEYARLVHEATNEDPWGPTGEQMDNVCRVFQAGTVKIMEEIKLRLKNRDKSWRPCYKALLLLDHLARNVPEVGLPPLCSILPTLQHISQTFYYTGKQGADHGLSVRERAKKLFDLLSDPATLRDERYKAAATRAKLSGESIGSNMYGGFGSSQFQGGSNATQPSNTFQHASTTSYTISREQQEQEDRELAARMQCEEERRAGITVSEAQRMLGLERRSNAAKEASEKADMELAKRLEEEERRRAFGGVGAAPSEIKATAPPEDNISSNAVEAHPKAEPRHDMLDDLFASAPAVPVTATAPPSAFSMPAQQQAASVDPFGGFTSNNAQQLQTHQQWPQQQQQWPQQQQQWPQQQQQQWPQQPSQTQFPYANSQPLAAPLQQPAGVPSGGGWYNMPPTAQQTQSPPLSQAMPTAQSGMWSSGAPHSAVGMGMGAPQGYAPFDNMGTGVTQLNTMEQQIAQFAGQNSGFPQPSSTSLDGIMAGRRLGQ
UniProt Q384B0: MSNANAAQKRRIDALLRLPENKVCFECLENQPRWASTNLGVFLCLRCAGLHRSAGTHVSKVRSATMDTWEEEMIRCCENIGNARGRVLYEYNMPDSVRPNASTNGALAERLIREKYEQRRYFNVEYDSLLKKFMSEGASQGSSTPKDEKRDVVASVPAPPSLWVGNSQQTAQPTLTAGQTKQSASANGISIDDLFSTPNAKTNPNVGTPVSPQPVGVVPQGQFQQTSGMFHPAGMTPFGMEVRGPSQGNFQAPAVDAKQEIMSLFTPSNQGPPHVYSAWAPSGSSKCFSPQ
UniProt Q57W90: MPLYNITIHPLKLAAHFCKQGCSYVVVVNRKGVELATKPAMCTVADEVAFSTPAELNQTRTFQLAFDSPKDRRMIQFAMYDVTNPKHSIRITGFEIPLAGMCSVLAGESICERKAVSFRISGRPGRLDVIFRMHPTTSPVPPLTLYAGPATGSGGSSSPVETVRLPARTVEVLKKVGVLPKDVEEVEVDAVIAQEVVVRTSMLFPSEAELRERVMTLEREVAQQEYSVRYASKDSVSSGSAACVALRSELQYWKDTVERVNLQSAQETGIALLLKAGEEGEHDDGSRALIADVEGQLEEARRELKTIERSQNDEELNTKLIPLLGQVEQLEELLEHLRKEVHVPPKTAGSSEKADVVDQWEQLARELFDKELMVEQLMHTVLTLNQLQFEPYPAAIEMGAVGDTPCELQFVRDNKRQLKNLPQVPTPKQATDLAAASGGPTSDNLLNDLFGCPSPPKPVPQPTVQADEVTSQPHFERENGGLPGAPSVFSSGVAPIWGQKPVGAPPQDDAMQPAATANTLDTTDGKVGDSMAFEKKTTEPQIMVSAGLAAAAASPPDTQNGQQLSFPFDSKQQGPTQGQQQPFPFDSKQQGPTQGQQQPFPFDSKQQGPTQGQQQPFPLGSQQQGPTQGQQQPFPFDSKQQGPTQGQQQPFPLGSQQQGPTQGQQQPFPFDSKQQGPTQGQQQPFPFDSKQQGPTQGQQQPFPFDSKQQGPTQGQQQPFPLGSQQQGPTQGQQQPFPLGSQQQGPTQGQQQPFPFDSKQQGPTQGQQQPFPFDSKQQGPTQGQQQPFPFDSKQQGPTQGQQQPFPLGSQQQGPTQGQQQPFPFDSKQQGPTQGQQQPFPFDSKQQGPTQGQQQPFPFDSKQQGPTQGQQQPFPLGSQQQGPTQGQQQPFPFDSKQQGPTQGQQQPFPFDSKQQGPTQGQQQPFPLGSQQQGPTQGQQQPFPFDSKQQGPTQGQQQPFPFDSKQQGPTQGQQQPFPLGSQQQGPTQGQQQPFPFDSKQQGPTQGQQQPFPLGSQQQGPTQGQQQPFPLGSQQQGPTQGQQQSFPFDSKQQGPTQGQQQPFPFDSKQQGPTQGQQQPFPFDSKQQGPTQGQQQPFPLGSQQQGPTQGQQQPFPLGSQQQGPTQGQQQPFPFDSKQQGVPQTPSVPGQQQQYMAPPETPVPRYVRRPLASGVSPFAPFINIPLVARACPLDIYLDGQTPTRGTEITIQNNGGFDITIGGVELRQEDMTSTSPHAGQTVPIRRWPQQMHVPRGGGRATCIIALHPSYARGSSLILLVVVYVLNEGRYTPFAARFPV
UniProt Q388P6: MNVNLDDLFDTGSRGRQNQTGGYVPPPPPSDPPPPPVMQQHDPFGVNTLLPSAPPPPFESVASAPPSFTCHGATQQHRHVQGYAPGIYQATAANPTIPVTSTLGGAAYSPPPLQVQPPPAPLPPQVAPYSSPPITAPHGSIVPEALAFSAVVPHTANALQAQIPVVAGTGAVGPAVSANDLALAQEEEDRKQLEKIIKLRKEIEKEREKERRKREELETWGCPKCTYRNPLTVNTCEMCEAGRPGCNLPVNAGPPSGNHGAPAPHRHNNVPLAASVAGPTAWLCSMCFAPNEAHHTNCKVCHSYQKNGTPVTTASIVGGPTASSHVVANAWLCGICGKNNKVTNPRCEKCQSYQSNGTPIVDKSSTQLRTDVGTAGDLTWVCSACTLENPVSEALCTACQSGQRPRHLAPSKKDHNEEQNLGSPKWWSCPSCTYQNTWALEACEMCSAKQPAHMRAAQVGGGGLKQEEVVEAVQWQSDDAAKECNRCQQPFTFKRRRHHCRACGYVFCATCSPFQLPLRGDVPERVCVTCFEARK
UniProt Q581A4: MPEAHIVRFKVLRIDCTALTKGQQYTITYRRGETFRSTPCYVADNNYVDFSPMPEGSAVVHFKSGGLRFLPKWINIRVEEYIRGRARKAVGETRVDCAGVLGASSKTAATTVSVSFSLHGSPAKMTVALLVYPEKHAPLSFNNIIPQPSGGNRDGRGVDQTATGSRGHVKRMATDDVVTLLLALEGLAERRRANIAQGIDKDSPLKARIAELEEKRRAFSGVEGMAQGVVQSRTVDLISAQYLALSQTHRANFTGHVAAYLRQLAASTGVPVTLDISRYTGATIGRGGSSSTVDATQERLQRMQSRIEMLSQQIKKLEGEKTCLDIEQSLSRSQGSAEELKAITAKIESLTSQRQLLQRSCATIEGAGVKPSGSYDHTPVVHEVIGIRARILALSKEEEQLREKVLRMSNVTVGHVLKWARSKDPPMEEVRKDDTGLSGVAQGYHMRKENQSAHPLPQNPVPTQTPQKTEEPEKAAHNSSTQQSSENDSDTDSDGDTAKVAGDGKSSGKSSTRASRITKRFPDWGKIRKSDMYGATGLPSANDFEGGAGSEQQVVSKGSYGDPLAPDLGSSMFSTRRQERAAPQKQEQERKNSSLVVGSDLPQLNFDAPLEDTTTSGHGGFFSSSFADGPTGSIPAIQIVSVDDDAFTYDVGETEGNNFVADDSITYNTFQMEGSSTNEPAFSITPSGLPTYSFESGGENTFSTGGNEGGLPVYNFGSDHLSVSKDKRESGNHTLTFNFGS

This assay addresses Trypanosoma brucei clathrin heavy chain with a C-terminal GFP (CHC::GFP) (Trypanosoma brucei brucei (endogenous in Lister 427)) (UniProt Q38B01). As to the kind of experiment: affinity purification with mass spectrometry; CHC::GFP captured from 300 mg of cryomilled powder of bloodstream- or procyclic-form cells with polyclonal llama anti-GFP antibodies on magnetic beads; 100 mM sodium phosphate pH 7.4, 250 mM Na-citrate, 0.5% Tween 20; LC-ESI MS; uncoupled beads as the control.

Results are given in words; binding and its absence hold for the method and conditions named. Binding seen in cells or lysates may run through a third protein. Here binding means that the protein was enriched with, or labelled near, the bait; the list need not be complete.

As to “Trypanosoma brucei EpsinR (TbEpsinR) (from UniProt Q387I4)”, the binding entry is recorded as “binds”.
Consider “TbSMAP, Tb927.11.9180 (from UniProt Q384B0)”, for which the binding result is reported as “binds”.
To “TbCAP141, Tb927.8.2820 (from UniProt Q57W90)” belongs “binds”; to Tb927.10.13520 (from UniProt Q388P6), “binds”.
Regarding “TbCAP80, Tb927.8.3840 (from UniProt Q581A4)”, the binding result is recorded as “binds”.
